Amino acid sequences for entries named in this document (tags omitted). A change or cut given only in a name is not applied to a line headed by its entry.
UniProt A0A1D8PLN4: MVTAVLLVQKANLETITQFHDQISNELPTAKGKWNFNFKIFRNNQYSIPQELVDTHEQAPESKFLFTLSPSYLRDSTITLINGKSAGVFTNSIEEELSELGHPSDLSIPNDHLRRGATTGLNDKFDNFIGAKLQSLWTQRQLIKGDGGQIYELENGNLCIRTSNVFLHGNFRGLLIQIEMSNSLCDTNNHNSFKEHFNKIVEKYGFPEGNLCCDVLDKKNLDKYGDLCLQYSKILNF
UniProt Q5ACU4: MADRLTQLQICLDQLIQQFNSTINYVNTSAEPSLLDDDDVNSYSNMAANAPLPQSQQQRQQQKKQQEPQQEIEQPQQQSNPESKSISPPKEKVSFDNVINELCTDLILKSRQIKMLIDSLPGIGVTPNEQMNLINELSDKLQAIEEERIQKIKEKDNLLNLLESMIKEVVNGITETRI

According to paper PMC4222720:

T1: TAP-tagged CaMed7 (C. albicans) (UniProt Q5AEN6)
T1 sequence: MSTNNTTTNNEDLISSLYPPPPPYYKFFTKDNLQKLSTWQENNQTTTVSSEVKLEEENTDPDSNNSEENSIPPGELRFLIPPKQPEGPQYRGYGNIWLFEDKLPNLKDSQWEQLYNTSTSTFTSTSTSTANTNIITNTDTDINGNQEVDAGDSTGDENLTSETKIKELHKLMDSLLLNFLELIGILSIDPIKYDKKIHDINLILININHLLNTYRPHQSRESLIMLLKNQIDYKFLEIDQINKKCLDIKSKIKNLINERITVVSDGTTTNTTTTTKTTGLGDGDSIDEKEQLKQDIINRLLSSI

B1: Med14 (protein, UniProt Q5AG31 1-1261)
chain: MPNGKQQHEVTESSSPPEIPHITANMIPLSNIIKYYTQEAYKQLTTAIENLSMNVNEESDIKRKKYFLNVIINLRQDFIKVYTLIKWASISKDVSKFIDLLNWFRIQEFHFENLIFQLNALTGYNAAKLPNSDIITALEVLYHGRPKLPSYNYIKSDNLSPQKILETLNDLNLVLMTRFALMDNIPKRFDYEIKDGRAYIRVSNEFEVSITVGNDLIIDNPEEYYKSPFYFIDFKFLFGANPESGLITFNDDKISTKLPTSSHKKLEKLVNQTLLTRGLQGLYELLHKYSNSFKIYLLAKQFQTLLINSRWRGNFQINYQTNKSLIVINYWSQHYLSRNWKSFIELGIDSHSNLNYRWFKNGQYCFGDQGNNELDKIFHLQRRNSNNGVTTSSNTISTSAMIAGIRRSTELSNETAIVDDNDNDNDDTNNTGETENEDLNVDLILNVVVNQHAKSIMSEIYSQLLTRFSETDVSMVSPHQLLLQISPKKSTVFAINPLTGFFYFIDPTPIQTYITKKINSPPPTLSQVSIKQSFIPESDMISYVIDQIIQLRLEVFNKEVNTKLATTAWINNGIIKLSDHELSKLTQFLIQNEEQEGDDNEEDSSTNTRLDSVLQSFKVQFYRRKNWPSSWFLINMISGVTTKSFWWVARIKSISGDWKIQWAQIIKFHGDNAKQELSPNESKVFDKPKRTVDCSIESEQLNFEFFKTLSTLSSNLILDHMILEELQVRSIKFIKLDWETIDDNKIFSKFKQNHDISLKRKNSHNINIDVNVDVADNTSTTTNTKYIRAPKLKYESMFLIYNDKLLPIYNSATILFLKIELVESNKMYLKLFGNLRNLQIKNTSEDIQKLHLNIDEANQYFEIDNTVDLSTVINEPKTLLLNLIFNTLNKLNSLIKILDQLNKSNVTVLDNSMDNITINIKDKYNDNNDKLIIIKLPEQATDSIQLLMKNGSTTTTDEIDLRNNNILEFELILKFLNQYLRESKSNNHNRQQISIIKIIQYLTEINPILQSTKAINQQLAELKRINSTNNNNNNAKRRSILKLSNGLYKLYFNLNIISLTHLQLVFFMNSNTGSNLKKIQRDKIMINLSLIKFDRFSKPNGNFQDSTNGHLIKISFKDSLINENLKFKNLFEIIFKNINELLITKSKQIKSLNQTENQQQQQPLKQEDNSDSAIIKKESQSIEDDLLDFGEYDNDIKPQQQEPQQNEKENSKTTSKENETVRPDDILIKLNYDYLLSMNNLQLMINEITKSCFQYLQQQQE
B2: Med6 (protein, UniProt Q5A2Z1 1-263)
chain: MESLDEIQWKSPEFIQERGLNTNNVLEYFSLSPFYDRTSNNQVLMMQFQYQQIQIPPGVSFHQYFQSRLSEMTGIEFVIAYTKEPDFWIIRKQKRQDPQNTVTLQDYYIIGANVYQAPRIYDVLSSRLLASVLSIKNSTDLLNDMTSYHISDGGHSYINSIHGSSSKPSQSSAVSKPSSTNTGTNATTTPITLTTPSGATVPSTVSNGISTSTEIASGVFDTLLNDVVMNDDHLYIDEIPLYGEGSTLERLGLKGNKDAGLSL
B3: Med11 (protein, UniProt Q59S43 1-168)
chain: MSSLDNDKTENFIQERLDSLHEIDCKVVTLLDQFSSIFQSFYTKSKEDFSQQTSDIYSTLSKVAIDLRKEIKIMDDNIGAYDKNDDNVMILPISNVDQKNTKLGRKRLDLELAELKRLISDEKQVETLENESNNEIQPKTESDTNQVETNENGNDINNKESEDIEMKE
B4: Med10 (protein, UniProt C4YGC2 1-170)
chain: MTTGALPSTPANEPLIKSADNVANLIESFIELGVLVHDNQGTPQSNQALMNKLNQLISQLSQTSITANDPNDANTNLKQFLIPIDVISYIEDGRNPDIYTREFIEVNAKSNARLKGKMLGFKKLRDVFGDKLKQEFPQLEKGVDDIINRTNDNSSHIASVITDTANNNNS
B5: Med17 (protein, UniProt C4YES4 1-565)
chain: MVEKQFNIDLELNDTGHIDPFLQDEDKLKLEELIPRILFERKSFLNVTEDSLRKEIDNSLKISEEDALDTEESREDTVEADQQEVFNKHKFELSKNINNALNETQLSLDFVSLLISSVKPSLAKSTISPHLSKFVKPTSLNSDRLGQDSNDNQESKTTDSFGQGWKLESLGKITDLFREASTNLNDQVIKERRYWNMINLVLANDEVLFRMRDPQNNARAIGVKYGYGDSGSNFHDQGLALLRKDNQTGEISFHPISSINNAKIVEKVSRFIRVKILSQIDGDYMLTGQSIFNFDFEKSKQSIINDIEKARFFLFEEDLFHQLIREAKLLVNYNVSIISNKIIIEINNIIIEIESIVYDELNEEELENYYQNVNEYSTLHNKKCQLILNYLKLMLCCYYKYNLKLKQKVPTALTKWKQSNSHPLILRPLVGNMRHELNLLNMKSVLDRLMHAHESELSYSKLDVEKFINLATRSKKQNPFQKSIEKPISKFHLVLCNKTSNMLDVNIQLTTNESFVNLIINMTIIRFETEDDFKNNVNGINVLQLGFSDFNEIKECLDWSIQNFV
B6: Med18 (protein, UniProt C4YKK1 1-351)
chain: MVHQLSLVSSIPHNKYLQTISTLQALTGLIQPESISTYTLLAKPSYAFKPKFEPGKVNQIEQYYMRCITTWNSDKQGDDGKVEKGFDISEPFINKESNIVVRKLFTEEDSVERVWTLQVSDIPVAGKNQGCCQQQIYESTLVHTHTAIEIKVGNGDPIDIDTNNDKQGENNTDKPKQEHDGKLPEAIDEDIIKNGDEKKTTHDDNDSDIMEIDEPNPETQTLPQSLSNGVSQRTTRKDSFLIFLSDLGYEVINQYWQKGVRFFYGDIIIEIYKIFIRDESSQADSNEGIKLKLLDDSNQFQIKAYININKSTEIDSINSGVKELIKLQEFLKNLFVLEIPDRMFMDSRIKQ
B7: Med16 (protein, UniProt C4YSX0 1-1052)
chain: MATQTDKQTIGRHLEQVPKASNLISWSRNGFIAYIPPIITTTTTTPTTTTTNNNKSNLLLTYIKNSDGKKWQLASPEPINIKLENNFLPQLSLVSWGSLNTDLAVSDIYGNFYILLAGVGLLDPNHIPSTITTTSTIKTEGNTEKNKDTKQIGNGSGTNGHGDSPINTPSFELTSYNHMEMIYRDIINPDINSAVNPGASIVAFKWLNIEKPQIVNKAATRLAENPTTTSSNSSSSIYGYGINQYQPYGVCHPIPTKQACVALRKNGQFILFYQGEHKVEYHKICCNLTDNISIIEKASIGFNNDKQIIVTAWDSLSNDINVYSIDINWGFLIESAKRQKLDQHYHTPKEAQKPPRLTLKKLHQMKPIQCFKEEDGESQSQSVVPEMGKLKVEELSSIDIISSNPDPKSGLSILITYGSSIIYRYALEKSDSSNTTSGGETSKNPISQAFYNLGVEKKIDWKGDDSSVRLVFKDKLMRRGQIESIINGFLDLSFSIIYKDGTVDVVDTTSWQIVNNSKNNNSVTGDEMELDNNDYPPKLISNLFDQGFQFPKISHKNRLVLAISPTMSSIVYTEIYGETVNLQLKPLERIDNFGTNSHDLYYTSVAFAHRYAFALYTSTCSDDLLLLIQSEINRIKDAVDGDTITRNKLGKQLCDSVIIECHKAINFHLDTITKESLDKLLSNNASLQKLLSLQLILGEFQQSSHFPNNYVVPDIAWIVLNLRSASLGIMFTLSSIYRQVSKKKPSEDTLQDSITRGECIMSIIGNFKWLIDLLVYLNQELLQLIYVKNNFLNNGNTTTSKLTLSNSIVLPLILNKVSRLFLMYAISAMGRTHEILKKLHKDLTEANKLFAPMKESLNRYFSISNNSPITVNLFESYLRECDALLNKEVPQKILTANNSINGNVNGNSGTSTNKPYSALKFEQKLLIKGIDVNDDNDSSTKISNTIIEELSNMILDRYSISISRETKLSELMFYDTDWLNIGINKKEVPSYTIDALRKLIISDSSTSTSLAKGEKLRVCTRCRAVSLVGDVTGLWTMVFQRTCMCGNAWVNV
B8: Med8 (protein, UniProt Q59TD3 1-239)
chain: MSQTPFNPNSPSVPTTTSLPSTDFSQIPYDVLESIRNRLNQIRQSLTKLADQINNHNRHPQKIKLPSYSYFQNQFQVLITQLMSITNQLYNNEDLLRNTNVYPTPIFPTSAHENMLTTLLRKKVAPEVDEWINGAKLIMENETKNKLDNQQVEIDILKIDQWVQWCLAKIQDLRDEFQFYGFHTVEELDHMETPQGKQEIKEKKDKEFEREQIELKITAGGQKSLHPNQVLKFMCQGQI

Target: T1, TAP-tagged CaMed7 (C. albicans)
Experiment: affinity purification with mass spectrometry; tandem affinity purification from C. albicans with TAP-tagged Med7 as bait and an untagged control; TCA precipitation, SDS-PAGE, in-gel trypsin digestion, LC-MS/MS (Velos LTQ-Orbitrap)

Row | binding | Molecule
1 | binds | Med20 (from UniProt A0A1D8PLN4 1-237)
2 | binds | Med21 (from UniProt Q5ACU4)
3 | binds | B1
4 | binds | B2
5 | binds | B3
6 | binds | B4
7 | binds | B5
8 | binds | B6
9 | binds | B7
10 | binds | B8

Results are given in words; binding and its absence hold for the method and conditions named. In cells and extracts the contact can be indirect. These calls come from enrichment with a bait or labelling near it, and not all partners need be listed. Sequences can lack the tags named with a protein.
